Test results reported in the supplement of paper PMC3334620.
Whole data set: some 33,000 sequences, median “E-score (-0.5 to 0.5)” near -0.0014, cut for the highest 2% near 0.25. This is one part of the list.

These sequences were tested against T1, Cad1 (UniProt P24813) (assay: PBM E-score (8-mer binding enrichment) (E-score (-0.5 to 0.5)); higher = stronger / more preferred TF binding). Conditions: protein concentration: 100 nM; construct: GST-full length.
T1 sequence: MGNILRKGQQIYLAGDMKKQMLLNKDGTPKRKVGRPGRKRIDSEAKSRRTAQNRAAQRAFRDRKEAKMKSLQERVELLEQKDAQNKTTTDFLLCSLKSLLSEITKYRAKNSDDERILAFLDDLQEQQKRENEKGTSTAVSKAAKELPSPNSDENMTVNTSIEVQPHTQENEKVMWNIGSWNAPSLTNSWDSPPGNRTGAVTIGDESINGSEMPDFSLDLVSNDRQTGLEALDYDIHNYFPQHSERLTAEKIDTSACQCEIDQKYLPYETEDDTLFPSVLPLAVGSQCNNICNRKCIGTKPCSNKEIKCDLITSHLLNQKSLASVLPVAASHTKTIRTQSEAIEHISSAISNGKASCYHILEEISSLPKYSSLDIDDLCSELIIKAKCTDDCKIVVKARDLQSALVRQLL
Procedure: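 Universal 'all 10-mer' protein binding microarrays (Agilent AMADID 015681) probed with GST-tagged S. cerevisiae TFs (full-length or DBD) made by in vitro transcription/translation (PURExpress), about 100-200 nM. Bound TF was detected with fluorescent anti-GST. Each ungapped 8-mer (which stands for itself and its reverse complement) is scored by the PBM enrichment score (E-score), a modified Wilcoxon-Mann-Whitney statistic from -0.5 to +0.5, computed with the Universal PBM Analysis Suite. Scale: above 0.35 generally sequence-specific binding.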

Sequence | PBM E-score
ACAAGCAC | -0.0733
AAAAAGTG | 0.0064
GCGCCCTA | -0.141
AGATTTGA | 0.088
AGTCTTGC | -0.0173
ATCTTTCA | 0.122
GGGGTTCA | -0.191
AGTCCAAC | -0.0448
AATAAGTA | 0.138
ATGTTAGG | -0.00995
AGAAGTCT | -0.0724
GAGATTCC | 0.0821
AATCTTCC | -0.15
ACACAAGA | 0.114
CTACATTA | -0.0325
CACAAACA | 0.104
AGAACACC | 0.0932
CCATTAGA | -0.17
ATCTAATG | -0.0144
GAGTCCCA | -0.00076
ATTACGAC | 0.0723
CCCGTTCC | -0.171
AAACTTAA | 0.171
AGTTAGGG | -0.0104
ATAACAGA | 0.0752

Sequence | PBM E-score
ACCGACTG | -0.0999
AACAAAAC | 0.231
TACCGGCA | 0.116
AAATCCTT | -0.0766
AGGGTTGA | -0.0586
CACCGGTC | -0.333
CAGTAGGA | -0.256
CTACCTCA | -0.107
AGCGCTAG | 0.0563
CATGTCCG | 0.0132
ACGCAAGG | 0.19
AGACCGGG | -0.0747
CCCGGGCA | -0.157
CTCGAATC | -0.0398
CACACGCG | 0.198
CCGGACGA | 0.0645
CCTTCAGA | -0.0779
CTGTGGTA | 0.127
AACCTTAC | 0.214
GCCAGAAA | 0.15
TACAACAA | 0.0832
CGCTGAGA | 0.143
TGCGTACA | 0.00948
ACTGTCCG | 0.00138
ATATAACA | 0.213

Sequence | PBM E-score
CTATGAAA | 0.00882
ACACTTCT | 0.029
AGGGCGGC | -0.24
ATTGATAG | 0.204
CCATATAC | 0.0985
CAGCAGTC | -0.032
GACACCTA | -0.102
GTCTGTTA | 0.106
AATCTACC | 0.0973
GTTCATAA | -0.0578
CTTAAGCC | 0.00617
CCCAACGC | 0.0459
ACTTCACA | -0.0424
CAACATAC | 0.132
GAGTGCGA | 0.0237
ACGGCCCG | -0.0776
AATTGTAC | 0.252
ACAAGAAT | 0.00675
CAGAGCAG | -0.00877
ACTGTTTG | -0.0907
AGTATACA | 0.207
GACTTAAA | -0.115
ACTCTCTC | -0.143
ATGCGTTG | 0.127
GGTTTAAC | 0.00796

Sequence | PBM E-score
GCATCCAC | 0.0528
CTGGGAAC | -0.0572
ACTTTGGA | 0.038
AAGACTAT | -0.0274
AAGATTCA | -0.00015
GACACAGA | 0.0727
CAGCCTAA | -0.094
AAGGGACT | -0.0835
CAACACGG | -0.0871
CTTCGCGC | 0.263
CTCCTCGA | -0.151
ACGGACAC | 0.0856
CCGCTCAG | -0.125
CCATCGAG | 0.14
TATTAATA | 0.339
CCAACTAC | 0.0584
AGCCATAT | -0.0728
ATCGTGCA | 0.166
ATCGAGAC | 0.0095
CCAAGGAG | -0.141
CGTGTGAA | 0.00012
GCGATCTA | 0.0722
CAGGTTCA | -0.134
CTGGACTA | -0.104
GATCCAGA | 0.142

Sequence | PBM E-score
CAGCGATA | 0.0576
AGATAATC | 0.0697
ACGTACTC | -0.0542
CCCTATAA | -0.163
TCCATAAA | -0.0315
CGATCCTC | -0.0855
CTCTGGTC | -0.0834
AAGGCAGA | -0.147
GTCTCCAC | -0.02
AATGGTTA | 0.103
CCACGCCG | -0.0393
GATTAATC | 0.355
CTATTGAG | 0.0794
AGCGTTCC | 0.205
CATCCTCG | 0.0642
ATATGCAA | 0.145
ATATTATG | 0.268
GTCGCTAA | 0.087
ACTTAATG | 0.138
CCAACGAG | -0.184
CTGGTCCC | -0.336
AACTATTA | 0.112
AAGTGGTA | -0.109
ATTTTTGA | -0.0179
ACCGAGGG | -0.362

Sequence | PBM E-score
AGGGCTCG | -0.157
AAGAAATG | 0.0466
CCTCACCA | -0.0853
CGGGTAAA | 0.0979
AGCGCGGC | 0.0398
CCCGGGTC | -0.242
CGATTAAA | 0.171
GATCTGAC | 0.0697
ATTTGGTA | 0.174
CTACTCTA | 0.031
CTGTTCTA | 0.0156
ACGCATAG | -0.102
CTCGGAAC | 0.156
ATCGTGTA | -0.146
TGTAGACA | 0.115
CATGATAA | 0.0688
CGGCTCAG | 0.00884
CAGTCGCA | -0.0677
ACGCATCT | 0.128
GCATGTCC | -0.0901
ACCGAATC | 0.0443
CTGCCACC | -0.182
ACAAGCGC | -0.0476
ATTAGACA | -0.00626
ACGGAGAT | -0.0194

Sequence | PBM E-score
AAATTAAC | 0.0173
AGCCGATG | 0.0778
GGGACCAC | -0.0444
AGGTACTG | -0.0341
TTTCGAAA | 0.0101
ATATTGAT | 0.219
ATCAAACA | 0.0662
AATCCCAA | -0.0959
CCTCGTTC | -0.0702
TATTACGA | 0.123
ACTGGCAT | -0.218
CAATTATG | 0.105
ACGCATAT | 0.134
CACACCTA | -0.00871
CGGGGCCA | -0.118
GAGAACGA | -0.0681
CGGGGTCC | -0.234
AGATCTCA | 0.0519
GCTCGATA | 0.115
GTAGTGAC | 0.0381
CGCATCCA | 0.0759
CATCGACG | -0.0508
